Results: paper PMC12681703

Biological target: LAPTM4B-24-3xFlag (Flag-tagged LAPTM4B)
Assay: affinity purification with mass spectrometry; immunoprecipitation of Flag-tagged LAPTM4B from LAPTM4B-expressing cells against control cells, then mass spectrometry; hit if the peptide count is at least 1.5-fold that of the control and at least two peptides more

- binding: binds
B1: TRIM8 (endogenous) (enzyme, UniProt Q9BZR9 1-551)
chain: MAENWKNCFEEELICPICLHVFVEPVQLPCKHNFCRGCIGEAWAKDSGLVRCPECNQAYNQKPGLEKNLKLTNIVEKFNALHVEKPPAALHCVFCRRGPPLPAQKVCLRCEAPCCQSHVQTHLQQPSTARGHLLVEADDVRAWSCPQHNAYRLYHCEAEQVAVCQYCCYYSGAHQGHSVCDVEIRRNEIRKMLMKQQDRLEEREQDIEDQLYKLESDKRLVEEKVNQLKEEVRLQYEKLHQLLDEDLRQTVEVLDKAQAKFCSENAAQALHLGERMQEAKKLLGSLQLLFDKTEDVSFMKNTKSVKILMDRTQTCTSSSLSPTKIGHLNSKLFLNEVAKKEKQLRKMLEGPFSTPVPFLQSVPLYPCGVSSSGAEKRKHSTAFPEASFLETSSGPVGGQYGAAGTASGEGQSGQPLGPCSSTQHLVALPGGAQPVHSSPVFPPSQYPNGSAAQQPMLPQYGGRKILVCSVDNCYCSSVANHGGHQPYPRSGHFPWTVPSQEYSHPLPPTPSVPQSLPSLAVRDWLDASQQPGHQDFYRVYGQPSTKHYVTS

These are yes or no findings as the source states them, for the method shown. In cells and extracts the contact can be indirect. A yes stands for co-enrichment or nearness to the bait. Other partners may have been found.
